# Measured data: PubChem BioAssay AID1508588 (Peter MacCallum Cancer Centre, 2020)
# Screen: 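Genome-wide search for knock-downs that heighten vemurafenib action in melanoma cells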 (primary screen)
# System: human WM266.4 melanoma cells (BRAF V600 mutant)
# Knock-down reagent: siRNA pool against human genes, 40 nM
# Time to read-out: 96 h from transfection to read-out
# Conditions: vemurafenib 300 nM (about IC25), added 48 h after transfection, for 48 h; comparison arm got DMSO vehicle only
# Measurement: 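Ratios to non-targeting siRNA for cell gain, counted as DAPI nuclei after minus before drug and averaged over two replicates, and for absorbance-read medium lactate per cell; both binned into fold-change classes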
# Scale: cell gain with vemurafenib: higher = more cell gain than with non-targeting siRNA; lactate per cell with vemurafenib: higher = more lactate made per cell
# Hit rule: 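Enhancement is called by pairing each knock-down's vehicle-arm and drug-arm fold-change classes for viability or glycolysis; which class combinations qualify is not given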
# Calls: active = enhances vemurafenib effect; inactive = no enhancement seen
# Here is a random part of about 18,000 deposited reagents. Of all reagents, 790 (4.4%) got an active call. 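Calls rest on a combination of fold-change classes in drug and vehicle arms, not all shown here.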
gene symbol,cell gain with vemurafenib,lactate per cell with vemurafenib,call
CEP83 (centrosomal protein 83),0.75,0.97,inactive
WNK2 (WNK lysine deficient protein kinase 2),0.73,0.52,inactive
FOXF1 (forkhead box F1),0.82,0.72,inactive
TCF19 (transcription factor 19),0.63,0.92,inactive
ENTPD5 (ectonucleoside triphosphate diphosphohydrolase 5),0.6,0.76,inactive
CELF2 (CUGBP Elav-like family member 2),0.61,1.6,inactive
SOST (sclerostin),0.9,0.75,inactive
RNPEP (arginyl aminopeptidase),0.54,0.88,inactive
RCL1 (RNA terminal phosphate cyclase like 1),0.32,1.14,inactive
RCC1L (RCC1 like),0,0,inactive
TET2 (tet methylcytosine dioxygenase 2),1.3,0.62,inactive
IMPA2 (inositol monophosphatase 2),0.48,1.75,inactive
VAMP5 (vesicle associated membrane protein 5),0.6,0.65,inactive
IGF2-AS (IGF2 antisense RNA),0.98,1.06,inactive
PAEP (progestagen associated endometrial protein),0.46,0.18,active
ACBD3 (acyl-CoA binding domain containing 3),0.3,0.99,inactive
RAD51B (RAD51 paralog B),0.63,0.86,inactive
SEMA4G (semaphorin 4G),-0.06,6.87,inactive
MTMR6 (myotubularin related protein 6),0.58,0.96,inactive
STX18 (syntaxin 18),0.57,1.02,inactive
MAST1 (microtubule associated serine/threonine kinase 1),0.69,1.68,inactive
DYNLT3 (dynein light chain Tctex-type 3),1.23,0.74,inactive
CEMIP2 (cell migration inducing hyaluronidase 2),0.69,0.76,inactive
ZNF804A (zinc finger protein 804A),0.66,0.55,inactive
IRX1 (iroquois homeobox 1),0.59,1.11,inactive
SLC9A5,0.69,1.79,inactive
HHATL (hedgehog acyltransferase like),0.35,0.82,inactive
ERH (ERH mRNA splicing and mitosis factor),0.18,0.2,inactive
HELT (helt bHLH transcription factor),0.5,1.01,inactive
IRF4 (interferon regulatory factor 4),0.52,1.16,inactive
F2R (coagulation factor II thrombin receptor),0.79,0.44,inactive
SLC34A2,0.27,0.84,inactive
MOCS3 (molybdenum cofactor synthesis 3),0.78,0.96,inactive
OR8H2 (olfactory receptor family 8 subfamily H member 2),0.37,0.9,inactive
CAMK4 (calcium/calmodulin dependent protein kinase IV),0.58,1.44,inactive
SOX9 (SRY-box transcription factor 9),0.37,1.92,inactive
HSPB9 (heat shock protein family B (small) member 9),0.83,0.65,inactive
FUT8 (fucosyltransferase 8),0.8,0.8,inactive
SBSN (suprabasin),1.08,0.51,inactive
SCAF4 (SR-related CTD associated factor 4),1.13,0.57,inactive
GTF2IRD1 (GTF2I repeat domain containing 1),1.01,0.8,inactive
CDKN2D (cyclin dependent kinase inhibitor 2D),0.86,1.28,inactive
CYB5A (cytochrome b5 type A),0.83,1.67,inactive
BIRC3 (baculoviral IAP repeat containing 3),0.97,0.86,inactive
TMT1B (thiol methyltransferase 1B),0.59,1.38,inactive
COX6A1 (cytochrome c oxidase subunit 6A1),0.48,1.38,inactive
CARD9 (caspase recruitment domain family member 9),0.5,0.98,inactive
TSPAN13 (tetraspanin 13),1.21,0.59,inactive
EEF2K (eukaryotic elongation factor 2 kinase),-0.08,2.98,inactive
WSCD1 (WSC domain sialate O sulfotransferase 1),0.78,0.69,inactive
PRM3 (protamine 3),0.37,0.48,active
"FES (FES proto-oncogene, tyrosine kinase)",0.26,1.48,inactive
TRIP11 (thyroid hormone receptor interactor 11),0.5,1.16,inactive
GRP (gastrin releasing peptide),0.19,0.96,inactive
LAD1 (ladinin 1),0.84,0.92,inactive
KRT33A (keratin 33A),0.23,0.86,inactive
CGB8 (chorionic gonadotropin subunit beta 8),0.67,0.72,inactive
C20orf141 (chromosome 20 open reading frame 141),0.43,1.23,inactive
UBB (ubiquitin B),-0.04,2.92,inactive
S100A7A (S100 calcium binding protein A7A),0.3,0.44,active
TMEM165 (transmembrane protein 165),0.26,0.78,inactive
TRIM21 (tripartite motif containing 21),0.62,1.09,inactive
"NAA10 (N-alpha-acetyltransferase 10, NatA catalytic subunit)",0.51,1.26,inactive
SYNE1 (spectrin repeat containing nuclear envelope protein 1),0.77,0.82,inactive
NUDT5 (nudix hydrolase 5),0.72,1.07,inactive
BAG3 (BAG cochaperone 3),0.27,0.38,inactive
C1orf122 (chromosome 1 open reading frame 122),0.84,1.06,inactive
MED1 (mediator complex subunit 1),0.53,1.15,inactive
DRAM1 (DNA damage regulated autophagy modulator 1),0.91,0.59,inactive
ANKFY1 (ankyrin repeat and FYVE domain containing 1),0.35,0.96,inactive
INSM1 (INSM transcriptional repressor 1),0.46,1.65,inactive
ZNF682 (zinc finger protein 682),0.92,0.73,inactive
GRAP (GRB2 related adaptor protein),0.86,1.4,inactive
NLRC3 (NLR family CARD domain containing 3),0.87,0.68,inactive
SGSM1 (small G protein signaling modulator 1),0.98,0.98,inactive
KRTAP13-1 (keratin associated protein 13-1),0.75,0.9,inactive
NGFR (nerve growth factor receptor),0.66,0.54,inactive
PLPP2 (phospholipid phosphatase 2),0.15,1.68,inactive
OR9G4 (olfactory receptor family 9 subfamily G member 4),1.21,0.82,inactive
CFAP91 (cilia and flagella associated protein 91),-0.08,0.24,active
C4orf50 (chromosome 4 open reading frame 50),0.2,1.46,inactive
SAMD7 (sterile alpha motif domain containing 7),0.62,0.66,inactive
OGT (O-linked N-acetylglucosamine (GlcNAc) transferase),0.55,0.78,inactive
"METRNL (meteorin like, glial cell differentiation regulator)",0.21,0.88,inactive
TCEAL2 (transcription elongation factor A like 2),0.76,1.15,inactive
KANK2 (KN motif and ankyrin repeat domains 2),0.24,2.1,inactive
ADNP (activity dependent neuroprotector homeobox),1,1.44,inactive
CD300LF (CD300 molecule like family member f),0.51,0.85,inactive
ADAT2 (adenosine deaminase tRNA specific 2),0.85,1.15,inactive
SNRK (SNF related kinase),0.49,0.94,inactive
ASRGL1 (asparaginase and isoaspartyl peptidase 1),0.82,0.95,inactive
ACTL6B (actin like 6B),0.47,1.38,inactive
RTF2 (replication termination factor 2),0.66,1.27,inactive
CUL4A (cullin 4A),0.8,0.72,inactive
MAPK8IP1 (mitogen-activated protein kinase 8 interacting protein 1),0.62,0.78,inactive
PAX1 (paired box 1),0.55,0.84,inactive
CES1 (carboxylesterase 1),0.17,1.06,inactive
SHCBP1 (SHC binding and spindle associated 1),0.44,1.46,inactive
ATP2B1 (ATPase plasma membrane Ca2+ transporting 1),0.6,0.95,inactive
TRAPPC11 (trafficking protein particle complex subunit 11),0.75,0.78,inactive
GPX3 (glutathione peroxidase 3),0.38,1.36,inactive
IL17F (interleukin 17F),0.23,1.25,inactive
OSGIN2 (oxidative stress induced growth inhibitor family member 2),0.64,1.29,inactive
IFI27L1 (interferon alpha inducible protein 27 like 1),0.92,0.82,inactive
PLBD1 (phospholipase B domain containing 1),0.63,0.85,inactive
MINDY1 (MINDY lysine 48 deubiquitinase 1),0.86,1.03,inactive
TMEM87A (transmembrane protein 87A),0.53,0.24,inactive

Not a retest: 9 of the entries above.
gene symbol,cell gain with vemurafenib,lactate per cell with vemurafenib,call
CDKN2D (cyclin dependent kinase inhibitor 2D),0.86,1.28,inactive
CYB5A (cytochrome b5 type A),0.83,1.67,inactive
BIRC3 (baculoviral IAP repeat containing 3),0.97,0.86,inactive
TMT1B (thiol methyltransferase 1B),0.59,1.38,inactive
COX6A1 (cytochrome c oxidase subunit 6A1),0.48,1.38,inactive
CARD9 (caspase recruitment domain family member 9),0.5,0.98,inactive
TSPAN13 (tetraspanin 13),1.21,0.59,inactive
EEF2K (eukaryotic elongation factor 2 kinase),-0.08,2.98,inactive
WSCD1 (WSC domain sialate O sulfotransferase 1),0.78,0.69,inactive
